In the experiment the target is yeast mitochondrial RNA polymerase Rpo41 (S. cerevisiae). The experiment is described as follows: fluorescence polarisation; fluorescence anisotropy: TAMRA-labelled promoter DNA (5 nM) titrated with Rpo41 and Mtf1 at 1:1.2; 25°C; 50 mM Tris-acetate pH 7.5, 100 mM potassium glutamate, 10 mM magnesium acetate, 0.01% Tween-20; reads the ternary Rpo41-Mtf1-promoter DNA complex; both purified. (Polarisation of emitted light reports the rotation of a fluorescent probe.)

These are yes or no findings as the source states them, for the method shown. Binding can be weak; no strength is given.

Five molecules from publication PMC7049685, “The C-terminal tail of the yeast mitochondrial transcription factor Mtf1 coordinates template strand alignment, DNA scrunching and timely transition into elongation” (Nucleic Acids Research, 2020) can be followed below.

B1: Mitochondrial Transcription Factor 1 (Mtf1), wild type (protein, UniProt P14908 2-341)
chain: SVPIPGIKDISKLKFFYGFKYLWNPTVYNKIFDKLDLTKTYKHPEELKVLDLYPGVGIQSAIFYNKYCPRQYSLLEKRSSLYKFLNAKFEGSPLQILKRDPYDWSTYSNLIDEERIFVPEVQSSDHINDKFLTVANVTGEGSEGLIMQWLSCIGNKNWLYRFGKVKMLLWMPSTTARKLLARPGMHSRSKCSVVREAFTDTKLIAISDANELKGFDSQCIEEWDPILFSAAEIWPTKGKPIALVEMDPIDFDFDVDNWDYVTRHLMILKRTPLNTVMDSLGHGGQQYFNSRITDKDLLKKCPIDLTNDEFIYLTKLFMEWPFKPDILMDFVDMYQTEHSG
For B1, the binding entry is reported as “binds”.

B2: Mtf1 C-tail deletion mutant lacking 16 aa from the C-terminus (domain or fragment, UniProt P14908 1-325)
chain: MSVPIPGIKDISKLKFFYGFKYLWNPTVYNKIFDKLDLTKTYKHPEELKVLDLYPGVGIQSAIFYNKYCPRQYSLLEKRSSLYKFLNAKFEGSPLQILKRDPYDWSTYSNLIDEERIFVPEVQSSDHINDKFLTVANVTGEGSEGLIMQWLSCIGNKNWLYRFGKVKMLLWMPSTTARKLLARPGMHSRSKCSVVREAFTDTKLIAISDANELKGFDSQCIEEWDPILFSAAEIWPTKGKPIALVEMDPIDFDFDVDNWDYVTRHLMILKRTPLNTVMDSLGHGGQQYFNSRITDKDLLKKCPIDLTNDEFIYLTKLFMEWPFKP
Consider B2, for which the binding result was “binds”.

B3: Mtf1 C-tail deletion mutant lacking 12 aa from the C-terminus (domain or fragment, UniProt P14908 1-329)
chain: MSVPIPGIKDISKLKFFYGFKYLWNPTVYNKIFDKLDLTKTYKHPEELKVLDLYPGVGIQSAIFYNKYCPRQYSLLEKRSSLYKFLNAKFEGSPLQILKRDPYDWSTYSNLIDEERIFVPEVQSSDHINDKFLTVANVTGEGSEGLIMQWLSCIGNKNWLYRFGKVKMLLWMPSTTARKLLARPGMHSRSKCSVVREAFTDTKLIAISDANELKGFDSQCIEEWDPILFSAAEIWPTKGKPIALVEMDPIDFDFDVDNWDYVTRHLMILKRTPLNTVMDSLGHGGQQYFNSRITDKDLLKKCPIDLTNDEFIYLTKLFMEWPFKPDILM
For B3, the binding result is on record as “binds”.

B4: Mtf1 C-tail deletion mutant lacking 20 aa from the C-terminus (domain or fragment, UniProt P14908 1-321)
chain: MSVPIPGIKDISKLKFFYGFKYLWNPTVYNKIFDKLDLTKTYKHPEELKVLDLYPGVGIQSAIFYNKYCPRQYSLLEKRSSLYKFLNAKFEGSPLQILKRDPYDWSTYSNLIDEERIFVPEVQSSDHINDKFLTVANVTGEGSEGLIMQWLSCIGNKNWLYRFGKVKMLLWMPSTTARKLLARPGMHSRSKCSVVREAFTDTKLIAISDANELKGFDSQCIEEWDPILFSAAEIWPTKGKPIALVEMDPIDFDFDVDNWDYVTRHLMILKRTPLNTVMDSLGHGGQQYFNSRITDKDLLKKCPIDLTNDEFIYLTKLFMEW
In the case of B4, the binding result is “binds”.

B5: Mtf1 C-tail deletion mutant lacking 4 aa from the C-terminus (domain or fragment, UniProt P14908 1-337)
chain: MSVPIPGIKDISKLKFFYGFKYLWNPTVYNKIFDKLDLTKTYKHPEELKVLDLYPGVGIQSAIFYNKYCPRQYSLLEKRSSLYKFLNAKFEGSPLQILKRDPYDWSTYSNLIDEERIFVPEVQSSDHINDKFLTVANVTGEGSEGLIMQWLSCIGNKNWLYRFGKVKMLLWMPSTTARKLLARPGMHSRSKCSVVREAFTDTKLIAISDANELKGFDSQCIEEWDPILFSAAEIWPTKGKPIALVEMDPIDFDFDVDNWDYVTRHLMILKRTPLNTVMDSLGHGGQQYFNSRITDKDLLKKCPIDLTNDEFIYLTKLFMEWPFKPDILMDFVDMYQT
Turning to B5, the binding result is given as “binds”.
